# Source: patent US10973820B2, “Compounds for treatment of diseases related to DUX4 expression” (Facio Intellectual Property B.V., priority 2017, dated 2021)
# System: primary FSHD cells
# Assay: myotube fusion / differentiation readout (fusion index) in primary FSHD myotubes
# Format: cell-based, human
# Source text: A quantitative assay readout was developed based on script-based image analysis. […] To analyse the images, an automated script was developed, enabling the detection of nuclei, myotube borders and DUX4 signals, with the script also detecting artefacts to reduce false positive signals. The script enabled multiple validated readouts including the number of DUX4 positive nuclei and nuclei clusters, the fusion index, myotube area, myotube width and myotube skeleton length (see FIG. 2). Additionally, the total nuclei count was included as a measure of cell loss or compound toxicity.
# A compound library containing approximately 5000 annotated compounds was screened in the high-content assay. For this purpose, primary myoblasts were seeded in 384 well plates after which the growth medium was replaced with differentiation medium. After 3 days of differentiation, cells were treated with library compounds (in duplicate on different screening plates) for 15 h, after which they were fixed and stained with antibodies against DUX4, antibodies against myosin heavy chain (MHC), and with DAPI (4′,6-diamidino-2-phenylindole). Script-based analysis provided readouts for DUX4 expression (count of DUX4-positive nuclei or DUX4 intensity) and for potential toxicity (fusion index and nuclei count). […]
smiles,measurement,value
COc1ccc(CC(C)NCC(O)c2ccc(O)c(NC=O)c2)cc1 (stereo not shown) [formoterol],fusion process and differentiation of myoblasts into myotubes,no myotube formation can be observed
